# The list shows a part of the results.
# Legend:
# Assay in all cases: glycan array binding signal (z-score within array); higher = stronger binding
# Conditions in all cases: glycan notation: IUPAC condensed, linker removed
# [1] = biological target: Gal3S(b1-3)[Fuc(a1-4)]GlcNAc
# How it was run: (§1)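 The Consortium for Functional Glycomics database supplied 3228 glycan arrays, of which those lacking an available protein sequence were dropped. The binding signal, a within-array Z-score, was averaged across arrays of the same protein sequence and across linkers. Negative scores can be read as non-binding.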
# Gal3S(b1-4)Glc = biological target: Gal3S(b1-4)Glc
# How it was run: as §1
# Gal3S(b1-4)Glc6S = biological target: Gal3S(b1-4)Glc6S
# How it was run: as §1
# Gal3S(b1-4)GlcNAc = biological target: Gal3S(b1-4)GlcNAc
# How it was run: as §1
# [2] = biological target: Gal3S(b1-4)[Fuc(a1-3)]Glc6S
# How it was run: as §1
# [3] = biological target: Gal3S(b1-4)[Fuc(a1-3)]GlcNAc
# How it was run: as §1
# [4] = biological target: Gal3S(b1-4)[Fuc(a1-3)]GlcNAc6S
# How it was run: as §1
# Gal3S4S(b1-4)GlcNAc = biological target: Gal3S4S(b1-4)GlcNAc
# How it was run: as §1
# Gal3S6S(b1-4)GlcNAc = biological target: Gal3S6S(b1-4)GlcNAc
# How it was run: as §1
# Gal3S6S(b1-4)GlcNAc6S = biological target: Gal3S6S(b1-4)GlcNAc6S
# How it was run: as §1
# Gal4S(b1-4)GlcNAc = biological target: Gal4S(b1-4)GlcNAc
# How it was run: as §1
# Gal4S6S(b1-4)GlcNAc = biological target: Gal4S6S(b1-4)GlcNAc
# How it was run: as §1
# Gal6P(b1-4)GlcNAc = biological target: Gal6P(b1-4)GlcNAc
# How it was run: as §1
# Gal6S(b1-3)GlcNAc = biological target: Gal6S(b1-3)GlcNAc
# How it was run: as §1
# Gal6S(b1-3)GlcNAc6S = biological target: Gal6S(b1-3)GlcNAc6S
# How it was run: as §1
# Gal6S(b1-4)Glc = biological target: Gal6S(b1-4)Glc
# How it was run: as §1
# Gal6S(b1-4)Glc6S = biological target: Gal6S(b1-4)Glc6S
# How it was run: as §1
# Gal6S(b1-4)GlcNAc = biological target: Gal6S(b1-4)GlcNAc
# How it was run: as §1
# Gal6S(b1-4)GlcNAc6S = biological target: Gal6S(b1-4)GlcNAc6S
# How it was run: as §1
# GalNAc(a1-3)Gal = biological target: GalNAc(a1-3)Gal
# How it was run: as §1
# GalNAc(a1-3)GalNAc = biological target: GalNAc(a1-3)GalNAc
# How it was run: as §1
# [5] = biological target: GalNAc(a1-3)GalNAc(b1-3)Gal(a1-4)Gal(b1-4)Glc
# How it was run: as §1
# [6] = biological target: GalNAc(a1-3)GalNAc(b1-3)Gal(a1-4)Gal(b1-4)GlcNAc
# How it was run: as §1
# GalNAc(b1-3)Gal = biological target: GalNAc(b1-3)Gal
# How it was run: as §1
# [7] = biological target: GalNAc(b1-3)Gal(a1-4)Gal(b1-4)GlcNAc
# How it was run: as §1
# [8] = biological target: GalNAc(b1-3)Gal(a1-4)Gal(b1-4)GlcNAc(b1-3)Gal(b1-4)Glc
# How it was run: as §1
# [9] = biological target: GalNAc(b1-3)Gal(a1-6)Gal(b1-4)Glc
# How it was run: as §1
# GalNAc(b1-3)GalNAc = biological target: GalNAc(b1-3)GalNAc
# How it was run: as §1
# GalNAc(b1-3)GlcNAc = biological target: GalNAc(b1-3)GlcNAc
# How it was run: as §1
# GalNAc(b1-4)Gal(b1-4)Glc = biological target: GalNAc(b1-4)Gal(b1-4)Glc
# How it was run: as §1
# GalNAc(b1-4)GlcNAc = biological target: GalNAc(b1-4)GlcNAc
# How it was run: as §1
# [10] = biological target: GalNAc(b1-4)GlcNAc(b1-2)Man
# How it was run: as §1
# [11] = biological target: GalNAc(b1-4)GlcNAc(b1-2)Man(a1-3)[GalNAc(b1-4)GlcNAc(b1-2)Man(a1-6)]Man(b1-4)GlcNAc(b1-4)GlcNAc
# How it was run: as §1
# [12] = biological target: GalNAc(b1-4)GlcNAc(b1-3)GalNAc(b1-4)GlcNAc
# How it was run: as §1
# GalNAc(b1-4)GlcNAc6S = biological target: GalNAc(b1-4)GlcNAc6S
# How it was run: as §1
# GalNAc(b1-6)GalNAc = biological target: GalNAc(b1-6)GalNAc
# How it was run: as §1
# GalNAc3S(b1-4)GlcNAc = biological target: GalNAc3S(b1-4)GlcNAc
# How it was run: as §1
# GalNAc3S(b1-4)GlcNAc3S = biological target: GalNAc3S(b1-4)GlcNAc3S
# How it was run: as §1
# [13] = biological target: GalNAc3S(b1-4)[Fuc(a1-3)]GlcNAc
# How it was run: as §1
# GalNAc4S6S(b1-4)GlcNAc = biological target: GalNAc4S6S(b1-4)GlcNAc
# How it was run: as §1
# GalNAc6S(b1-4)GlcNAc = biological target: GalNAc6S(b1-4)GlcNAc
# How it was run: as §1
# Glc(a1-4)Glc = biological target: Glc(a1-4)Glc
# How it was run: as §1
# [14] = biological target: Glc(a1-4)Glc(a1-4)Glc(a1-4)Glc
# How it was run: as §1
# Glc(a1-6)Glc(a1-6)Glc = biological target: Glc(a1-6)Glc(a1-6)Glc
# How it was run: as §1
# [15] = biological target: Glc(a1-6)Glc(a1-6)Glc(a1-6)Glc
# How it was run: as §1
binder,measurement,setting,value
"FGF1 (Homo sapiens), P05230 (protein) MAEGEITTFTALTEKFNLPPGNYKKPKLLYSNGGHFLRILPDGTVDGTRDRSDQHIQLQLSAESVGEVYIKSTETGQYLAMTDGLLYGSQTPNEECLFLERLEENHYNTYISKHAEKNWFVGLKKNGSCKRGPRTHYGQAILFLPLPASSED",glycan array binding signal (z-score),[1],3.14
same,glycan array binding signal (z-score),Gal3S(b1-4)Glc,-0.046
same,glycan array binding signal (z-score),Gal3S(b1-4)Glc6S,0.556
same,glycan array binding signal (z-score),Gal3S(b1-4)GlcNAc,0.083
same,glycan array binding signal (z-score),[2],1.23
same,glycan array binding signal (z-score),[3],0.189
same,glycan array binding signal (z-score),[4],-0.05
same,glycan array binding signal (z-score),Gal3S4S(b1-4)GlcNAc,-0.536
same,glycan array binding signal (z-score),Gal3S6S(b1-4)GlcNAc,-0.115
same,glycan array binding signal (z-score),Gal3S6S(b1-4)GlcNAc6S,1.04
same,glycan array binding signal (z-score),Gal4S(b1-4)GlcNAc,-0.846
same,glycan array binding signal (z-score),Gal4S6S(b1-4)GlcNAc,-0.697
same,glycan array binding signal (z-score),Gal6P(b1-4)GlcNAc,-0.472
same,glycan array binding signal (z-score),Gal6S(b1-3)GlcNAc,1.05
same,glycan array binding signal (z-score),Gal6S(b1-3)GlcNAc6S,-0.611
same,glycan array binding signal (z-score),Gal6S(b1-4)Glc,-0.316
same,glycan array binding signal (z-score),Gal6S(b1-4)Glc6S,0.102
same,glycan array binding signal (z-score),Gal6S(b1-4)GlcNAc,0.73
same,glycan array binding signal (z-score),Gal6S(b1-4)GlcNAc6S,2.17
same,glycan array binding signal (z-score),GalNAc(a1-3)Gal,-0.833
same,glycan array binding signal (z-score),GalNAc(a1-3)GalNAc,-0.764
same,glycan array binding signal (z-score),[5],-0.775
same,glycan array binding signal (z-score),[6],-0.706
same,glycan array binding signal (z-score),GalNAc(b1-3)Gal,0.253
same,glycan array binding signal (z-score),[7],-0.019
same,glycan array binding signal (z-score),[8],-0.551
same,glycan array binding signal (z-score),[9],-0.998
same,glycan array binding signal (z-score),GalNAc(b1-3)GalNAc,-0.779
same,glycan array binding signal (z-score),GalNAc(b1-3)GlcNAc,-0.145
same,glycan array binding signal (z-score),GalNAc(b1-4)Gal(b1-4)Glc,0.8
same,glycan array binding signal (z-score),GalNAc(b1-4)GlcNAc,0.286
same,glycan array binding signal (z-score),[10],-0.504
same,glycan array binding signal (z-score),[11],6.98
same,glycan array binding signal (z-score),[12],-0.514
same,glycan array binding signal (z-score),GalNAc(b1-4)GlcNAc6S,-0.848
same,glycan array binding signal (z-score),GalNAc(b1-6)GalNAc,-0.667
same,glycan array binding signal (z-score),GalNAc3S(b1-4)GlcNAc,-0.668
same,glycan array binding signal (z-score),GalNAc3S(b1-4)GlcNAc3S,-0.564
same,glycan array binding signal (z-score),[13],-0.673
same,glycan array binding signal (z-score),GalNAc4S6S(b1-4)GlcNAc,0.198
same,glycan array binding signal (z-score),GalNAc6S(b1-4)GlcNAc,-0.814
same,glycan array binding signal (z-score),Glc(a1-4)Glc,0.782
same,glycan array binding signal (z-score),[14],-0.126
same,glycan array binding signal (z-score),Glc(a1-6)Glc(a1-6)Glc,-0.37
same,glycan array binding signal (z-score),[15],0.17

# Copied from above (two entries):
binder,measurement,setting,value
"FGF1 (Homo sapiens), P05230 (protein) MAEGEITTFTALTEKFNLPPGNYKKPKLLYSNGGHFLRILPDGTVDGTRDRSDQHIQLQLSAESVGEVYIKSTETGQYLAMTDGLLYGSQTPNEECLFLERLEENHYNTYISKHAEKNWFVGLKKNGSCKRGPRTHYGQAILFLPLPASSED",glycan array binding signal (z-score),[7],-0.019
same,glycan array binding signal (z-score),[8],-0.551

# Reference: the supplement of paper PMC8728848
